Laboratory results reported in PMC11576389.
No constants are given. Whether binding was seen depends on the method and setting. A result given as binding can be weak or reduced; the word gives no strength.

Chains of the proteins cited; added tags and fusions are not shown. Lines headed by an entry give the natural chain unless they say otherwise; changes in a name come on top. Residues count along the entry.
UniProt P14780: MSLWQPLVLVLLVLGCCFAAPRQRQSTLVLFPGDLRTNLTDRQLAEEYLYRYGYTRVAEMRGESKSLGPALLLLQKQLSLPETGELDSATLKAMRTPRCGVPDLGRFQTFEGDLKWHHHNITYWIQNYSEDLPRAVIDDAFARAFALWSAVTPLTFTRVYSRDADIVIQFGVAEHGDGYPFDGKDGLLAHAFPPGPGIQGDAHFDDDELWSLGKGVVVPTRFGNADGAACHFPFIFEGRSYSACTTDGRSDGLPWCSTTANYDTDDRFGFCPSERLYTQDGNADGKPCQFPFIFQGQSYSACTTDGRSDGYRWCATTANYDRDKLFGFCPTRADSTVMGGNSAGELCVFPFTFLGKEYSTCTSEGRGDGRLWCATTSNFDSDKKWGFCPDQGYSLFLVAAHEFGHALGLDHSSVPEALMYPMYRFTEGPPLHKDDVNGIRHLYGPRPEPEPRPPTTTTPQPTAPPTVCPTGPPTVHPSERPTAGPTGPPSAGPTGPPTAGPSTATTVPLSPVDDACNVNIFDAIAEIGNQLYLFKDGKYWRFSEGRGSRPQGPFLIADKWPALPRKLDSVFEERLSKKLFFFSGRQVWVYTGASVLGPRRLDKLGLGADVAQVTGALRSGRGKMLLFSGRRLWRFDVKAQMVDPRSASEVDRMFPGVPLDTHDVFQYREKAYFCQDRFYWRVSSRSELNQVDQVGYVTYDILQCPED
UniProt P01033, residues 24-207: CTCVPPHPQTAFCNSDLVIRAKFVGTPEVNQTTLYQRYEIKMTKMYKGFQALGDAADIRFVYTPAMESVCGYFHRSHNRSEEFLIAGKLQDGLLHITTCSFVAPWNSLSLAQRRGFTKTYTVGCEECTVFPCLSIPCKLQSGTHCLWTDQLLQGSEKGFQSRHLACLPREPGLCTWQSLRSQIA

Key:
[1] = molecular target: matrix metalloproteinase-9 (MMP-9) (human (endogenous in monocyte-derived macrophages)) (UniProt P14780); assay: ELISA; MMP-9 complexed by TIMP-1 measured in cell lysates of M(LPS/IFN-γ) and M(IL-4) (Figure S5); the only method the paper names for the complex is the Human MMP-9/TIMP-1 DuoSet ELISA
[2] = molecular target: matrix metalloproteinase-9 (MMP-9) (human (endogenous in monocyte-derived macrophages)) (UniProt P14780); assay: ELISA; sandwich ELISA for the MMP-9/TIMP-1 complex (Human MMP-9/TIMP-1 DuoSet ELISA, R&D Systems DY1449) on cell culture supernatants of M(M-CSF), M(LPS/IFN-γ) and M(IL-4), according to the manufacturer's protocol

binding [1]: binds | binding [2]: binds
Substance: tissue inhibitor of metalloproteinases-1 (TIMP-1) (from UniProt P01033 24-207)
